Assay results from the supplement of paper PMC10849652.
This is one part of the list.

Sequences of proteins named here, by UniProt entry; tags and fusion partners are left off. A change or cut given only in a name is not applied to a line headed by its entry.
UniProt P09884: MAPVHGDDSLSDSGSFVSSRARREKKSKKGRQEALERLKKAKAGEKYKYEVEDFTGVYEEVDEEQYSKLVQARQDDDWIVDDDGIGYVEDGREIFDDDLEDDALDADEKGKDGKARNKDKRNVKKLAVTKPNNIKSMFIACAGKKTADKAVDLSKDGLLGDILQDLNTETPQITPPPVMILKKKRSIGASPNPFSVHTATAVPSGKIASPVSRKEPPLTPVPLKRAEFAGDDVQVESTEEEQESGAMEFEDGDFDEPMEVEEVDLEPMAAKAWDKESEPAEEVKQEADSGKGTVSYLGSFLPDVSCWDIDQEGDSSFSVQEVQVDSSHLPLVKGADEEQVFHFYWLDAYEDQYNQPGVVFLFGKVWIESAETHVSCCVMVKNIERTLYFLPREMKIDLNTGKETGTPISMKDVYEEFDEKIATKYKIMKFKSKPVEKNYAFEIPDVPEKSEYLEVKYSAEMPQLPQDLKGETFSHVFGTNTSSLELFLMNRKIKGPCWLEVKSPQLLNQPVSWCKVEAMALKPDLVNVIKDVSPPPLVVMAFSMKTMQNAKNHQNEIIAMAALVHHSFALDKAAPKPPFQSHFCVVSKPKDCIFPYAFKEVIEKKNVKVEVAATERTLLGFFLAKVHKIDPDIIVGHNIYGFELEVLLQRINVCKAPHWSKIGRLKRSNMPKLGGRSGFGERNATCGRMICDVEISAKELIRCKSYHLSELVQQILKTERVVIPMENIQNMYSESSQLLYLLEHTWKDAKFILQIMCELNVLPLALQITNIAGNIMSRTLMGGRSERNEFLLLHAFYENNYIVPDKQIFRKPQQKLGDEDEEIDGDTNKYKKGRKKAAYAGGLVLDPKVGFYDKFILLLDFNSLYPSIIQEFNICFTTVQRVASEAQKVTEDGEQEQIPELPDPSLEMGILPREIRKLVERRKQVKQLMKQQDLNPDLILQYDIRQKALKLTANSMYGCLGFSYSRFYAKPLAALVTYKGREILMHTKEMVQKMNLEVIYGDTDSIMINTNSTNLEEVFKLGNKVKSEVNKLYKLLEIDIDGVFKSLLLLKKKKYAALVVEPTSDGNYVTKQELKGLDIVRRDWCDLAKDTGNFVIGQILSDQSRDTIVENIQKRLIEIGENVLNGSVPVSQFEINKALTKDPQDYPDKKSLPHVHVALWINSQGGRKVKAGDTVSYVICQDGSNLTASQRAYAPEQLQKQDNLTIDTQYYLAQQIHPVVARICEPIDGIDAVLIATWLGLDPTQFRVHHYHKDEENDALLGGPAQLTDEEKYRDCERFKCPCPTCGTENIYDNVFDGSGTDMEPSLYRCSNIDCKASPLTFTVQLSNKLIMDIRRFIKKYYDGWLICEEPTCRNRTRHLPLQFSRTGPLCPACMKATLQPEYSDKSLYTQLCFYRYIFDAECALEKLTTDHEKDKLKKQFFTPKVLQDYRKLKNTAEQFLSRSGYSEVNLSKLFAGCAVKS
UniProt Q9BT43: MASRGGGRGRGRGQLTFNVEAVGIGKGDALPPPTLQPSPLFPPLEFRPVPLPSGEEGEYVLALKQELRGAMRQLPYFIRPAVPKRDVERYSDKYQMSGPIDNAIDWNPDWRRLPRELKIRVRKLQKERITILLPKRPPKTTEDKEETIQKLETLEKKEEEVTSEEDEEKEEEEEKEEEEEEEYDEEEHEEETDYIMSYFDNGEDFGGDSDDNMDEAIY
UniProt P14859: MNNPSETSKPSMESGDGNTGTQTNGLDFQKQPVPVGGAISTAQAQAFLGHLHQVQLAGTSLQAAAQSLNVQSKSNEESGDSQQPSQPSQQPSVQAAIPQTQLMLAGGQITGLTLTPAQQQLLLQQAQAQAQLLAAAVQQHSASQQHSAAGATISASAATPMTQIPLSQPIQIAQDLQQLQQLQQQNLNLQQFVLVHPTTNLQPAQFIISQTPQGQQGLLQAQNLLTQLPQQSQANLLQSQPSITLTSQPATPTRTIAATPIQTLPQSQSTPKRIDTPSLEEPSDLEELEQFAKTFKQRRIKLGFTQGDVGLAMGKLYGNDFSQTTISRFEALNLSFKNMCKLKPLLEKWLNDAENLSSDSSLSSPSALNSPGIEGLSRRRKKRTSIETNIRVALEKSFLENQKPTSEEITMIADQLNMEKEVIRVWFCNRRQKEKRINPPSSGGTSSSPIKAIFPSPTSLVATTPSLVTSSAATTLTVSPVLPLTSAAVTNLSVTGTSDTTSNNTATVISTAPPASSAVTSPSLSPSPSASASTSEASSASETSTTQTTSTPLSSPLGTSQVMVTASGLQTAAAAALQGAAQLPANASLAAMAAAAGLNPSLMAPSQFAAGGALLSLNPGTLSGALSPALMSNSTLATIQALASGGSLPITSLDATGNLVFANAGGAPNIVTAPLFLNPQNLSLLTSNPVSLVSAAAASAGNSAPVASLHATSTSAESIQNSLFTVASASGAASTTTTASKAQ
UniProt Q9NP80: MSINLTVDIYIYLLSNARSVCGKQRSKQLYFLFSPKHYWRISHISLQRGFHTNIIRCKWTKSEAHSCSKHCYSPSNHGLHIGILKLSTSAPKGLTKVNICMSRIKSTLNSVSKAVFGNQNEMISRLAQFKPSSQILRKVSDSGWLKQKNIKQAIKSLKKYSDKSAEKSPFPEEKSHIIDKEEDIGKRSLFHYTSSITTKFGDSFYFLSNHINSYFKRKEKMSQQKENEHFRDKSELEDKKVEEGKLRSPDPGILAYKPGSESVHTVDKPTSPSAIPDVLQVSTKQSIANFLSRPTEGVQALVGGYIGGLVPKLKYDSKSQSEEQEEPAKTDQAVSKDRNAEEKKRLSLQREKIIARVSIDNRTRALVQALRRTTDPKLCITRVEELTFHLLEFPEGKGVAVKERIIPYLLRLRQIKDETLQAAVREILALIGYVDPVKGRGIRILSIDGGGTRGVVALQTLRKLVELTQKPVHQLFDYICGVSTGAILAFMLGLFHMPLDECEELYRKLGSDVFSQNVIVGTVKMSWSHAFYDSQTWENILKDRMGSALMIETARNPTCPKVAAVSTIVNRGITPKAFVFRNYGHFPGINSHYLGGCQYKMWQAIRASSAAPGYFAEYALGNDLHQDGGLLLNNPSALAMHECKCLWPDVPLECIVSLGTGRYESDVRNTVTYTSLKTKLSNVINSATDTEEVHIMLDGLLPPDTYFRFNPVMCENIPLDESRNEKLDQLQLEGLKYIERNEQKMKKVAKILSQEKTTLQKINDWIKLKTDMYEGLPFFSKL
UniProt P62937, whole entry, looked up: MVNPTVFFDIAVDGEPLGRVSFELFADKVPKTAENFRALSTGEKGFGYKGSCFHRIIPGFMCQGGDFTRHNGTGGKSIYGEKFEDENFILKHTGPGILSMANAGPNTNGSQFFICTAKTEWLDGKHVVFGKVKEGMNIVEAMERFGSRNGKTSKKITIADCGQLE
UniProt P54098: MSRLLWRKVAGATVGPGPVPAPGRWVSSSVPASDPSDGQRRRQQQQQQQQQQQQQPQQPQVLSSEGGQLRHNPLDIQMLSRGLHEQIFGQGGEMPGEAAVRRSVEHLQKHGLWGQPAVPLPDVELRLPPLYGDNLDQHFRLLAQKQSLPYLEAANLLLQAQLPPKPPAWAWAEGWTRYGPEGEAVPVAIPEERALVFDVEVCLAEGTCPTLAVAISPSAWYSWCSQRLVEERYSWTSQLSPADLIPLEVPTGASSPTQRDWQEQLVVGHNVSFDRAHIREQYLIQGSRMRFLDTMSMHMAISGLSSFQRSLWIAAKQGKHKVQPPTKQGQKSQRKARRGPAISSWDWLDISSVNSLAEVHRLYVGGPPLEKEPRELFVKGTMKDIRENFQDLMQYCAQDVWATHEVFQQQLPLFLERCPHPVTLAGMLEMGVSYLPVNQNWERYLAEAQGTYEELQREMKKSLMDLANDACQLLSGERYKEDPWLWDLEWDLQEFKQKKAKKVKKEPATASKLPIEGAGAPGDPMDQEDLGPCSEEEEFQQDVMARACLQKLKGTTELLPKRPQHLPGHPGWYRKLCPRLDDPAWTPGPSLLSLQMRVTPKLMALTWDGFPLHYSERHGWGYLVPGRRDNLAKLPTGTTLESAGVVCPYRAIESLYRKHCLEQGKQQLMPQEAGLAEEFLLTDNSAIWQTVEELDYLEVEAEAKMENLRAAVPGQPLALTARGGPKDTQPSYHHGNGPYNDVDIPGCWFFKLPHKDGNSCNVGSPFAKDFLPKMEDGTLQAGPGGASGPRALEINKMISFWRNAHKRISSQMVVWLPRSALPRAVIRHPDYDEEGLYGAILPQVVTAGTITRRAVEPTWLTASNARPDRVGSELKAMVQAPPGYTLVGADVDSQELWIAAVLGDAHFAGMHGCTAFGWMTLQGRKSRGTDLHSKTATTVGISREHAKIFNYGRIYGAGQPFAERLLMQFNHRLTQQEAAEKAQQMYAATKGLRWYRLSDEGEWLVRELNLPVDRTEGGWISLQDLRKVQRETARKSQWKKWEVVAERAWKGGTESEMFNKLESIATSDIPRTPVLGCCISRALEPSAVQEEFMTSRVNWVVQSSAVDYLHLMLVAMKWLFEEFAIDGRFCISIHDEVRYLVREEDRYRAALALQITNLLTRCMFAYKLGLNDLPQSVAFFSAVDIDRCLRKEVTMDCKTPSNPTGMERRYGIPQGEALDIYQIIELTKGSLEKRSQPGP
UniProt O60664: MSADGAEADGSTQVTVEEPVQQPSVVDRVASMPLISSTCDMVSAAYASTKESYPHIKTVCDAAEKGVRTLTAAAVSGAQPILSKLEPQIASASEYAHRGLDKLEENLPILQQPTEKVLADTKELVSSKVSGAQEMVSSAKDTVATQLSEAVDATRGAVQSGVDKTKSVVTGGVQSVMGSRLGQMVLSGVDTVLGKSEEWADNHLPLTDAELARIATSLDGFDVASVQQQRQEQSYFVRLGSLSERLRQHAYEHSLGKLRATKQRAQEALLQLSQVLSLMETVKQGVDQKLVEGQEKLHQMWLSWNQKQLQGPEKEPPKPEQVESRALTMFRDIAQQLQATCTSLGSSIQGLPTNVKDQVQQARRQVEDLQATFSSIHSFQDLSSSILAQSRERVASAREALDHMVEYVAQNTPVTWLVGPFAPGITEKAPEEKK
UniProt Q9NQ55: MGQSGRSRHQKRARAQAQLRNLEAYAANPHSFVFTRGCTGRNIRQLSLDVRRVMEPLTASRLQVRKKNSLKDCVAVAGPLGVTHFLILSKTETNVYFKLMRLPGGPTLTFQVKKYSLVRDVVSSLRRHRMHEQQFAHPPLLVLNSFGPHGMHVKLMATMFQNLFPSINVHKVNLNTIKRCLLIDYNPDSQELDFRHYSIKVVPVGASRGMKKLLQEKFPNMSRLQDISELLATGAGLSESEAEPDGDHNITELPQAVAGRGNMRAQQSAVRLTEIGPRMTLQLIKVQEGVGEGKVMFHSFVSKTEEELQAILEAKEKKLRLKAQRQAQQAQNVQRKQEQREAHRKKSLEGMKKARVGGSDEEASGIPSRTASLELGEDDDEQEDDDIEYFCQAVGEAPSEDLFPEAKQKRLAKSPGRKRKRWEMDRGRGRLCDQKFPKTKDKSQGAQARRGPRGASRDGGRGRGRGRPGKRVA
UniProt Q7Z4H8: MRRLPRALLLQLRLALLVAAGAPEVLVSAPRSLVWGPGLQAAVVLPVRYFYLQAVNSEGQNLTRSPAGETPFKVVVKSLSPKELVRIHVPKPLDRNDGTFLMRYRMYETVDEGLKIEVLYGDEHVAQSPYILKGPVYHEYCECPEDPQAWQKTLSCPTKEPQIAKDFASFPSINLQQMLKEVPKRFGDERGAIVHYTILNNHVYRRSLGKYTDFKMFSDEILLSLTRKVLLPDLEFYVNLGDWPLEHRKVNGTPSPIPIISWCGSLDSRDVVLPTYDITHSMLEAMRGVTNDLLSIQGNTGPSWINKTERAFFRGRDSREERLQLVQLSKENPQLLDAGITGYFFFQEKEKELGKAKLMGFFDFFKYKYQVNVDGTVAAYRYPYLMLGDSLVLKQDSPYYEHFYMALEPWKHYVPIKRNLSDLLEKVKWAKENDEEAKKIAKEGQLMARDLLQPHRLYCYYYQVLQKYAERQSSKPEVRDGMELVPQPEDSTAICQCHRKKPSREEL
UniProt Q9NR33: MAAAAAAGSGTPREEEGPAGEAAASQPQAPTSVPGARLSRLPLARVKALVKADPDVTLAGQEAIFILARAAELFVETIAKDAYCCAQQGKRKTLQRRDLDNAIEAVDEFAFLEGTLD
UniProt O94903: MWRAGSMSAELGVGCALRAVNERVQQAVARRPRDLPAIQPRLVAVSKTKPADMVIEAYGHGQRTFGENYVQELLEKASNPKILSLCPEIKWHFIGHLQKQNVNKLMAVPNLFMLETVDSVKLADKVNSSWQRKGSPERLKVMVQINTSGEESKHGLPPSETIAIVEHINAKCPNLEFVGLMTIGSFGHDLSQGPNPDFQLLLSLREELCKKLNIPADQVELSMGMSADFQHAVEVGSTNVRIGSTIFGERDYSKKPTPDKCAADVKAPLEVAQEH

How the values were obtained:
Experiment in all cases: log2 fold change, soluble protein after heating vs DMSO (PISA); higher = thermal stabilisation; K562 lysate, 10 uM; active = over 0.2 and 3.5 SD of the protein, either way, in both replicates (recomputed)
[1] = compound: CN1CC[C@H](c2c(O)cc(O)c3c(=O)cc(-c4ccccc4Cl)oc23)[C@H](O)C1 [alvocidib]
Outline: (§1)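 Soluble protein was defined as the supernatant remaining after 21,000xg for 90 min, following pooling of heated aliquots and adjustment to 0.5% NP-40 at 4°C. Before that, crude K562 extract at 1 mg/mL protein in PBS pH 7.4 with 1 mM MgCl2 was treated with 10 μM compound for 30 min and heated for 3 min across 48°C-58°C. Quantification used TMTpro 16plex LC-MS/MS with channel sums equalised, and values are log-two fold changes in thermal stability relative to solvent controls from duplicates.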

[2] = compound: CN1CCc2c(c3ccccc3n2Cc2ccc(C(=O)NO)cc2)C1 [Tubastatin A]
Outline: as §1

[3] = compound: CNC(=O)C1=CC=CC=C1NC2=NC(=NC=C2Cl)NC3=C(C=C(C=C3)N4CCOCC4)OC
Outline: as §1

[4] = compound: CNC(=O)c1ccc(Nc2ncc(C(F)(F)F)c(NCc3nccnc3N(C)S(C)(=O)=O)n2)cc1 [defactinib]
Outline: as §1

[5] = compound: CNc1nc(-c2ccc3c(N)n[nH]c3c2)cc(N2C[C@@H](C(=O)NC3CCCCC3)CC[C@H]2C)n1
Outline: as §1

[6] = compound: COC(=O)N[C@@H](C)CNc1nccc(-c2cn(C(C)C)nc2-c2cc(Cl)cc(NS(C)(=O)=O)c2F)n1 [encorafenib]
Outline: as §1

[7] = compound: COC(=O)[C@H](CCSC)NC(=O)C1=C(C=C(C=C1)NC[C@H](CS)N)C2=CC=CC=C2
Outline: as §1

[8] = compound: COc1cc(Nc2ncc3c(n2)-c2ccc(Cl)cc2C(c2c(F)cccc2OC)=NC3)ccc1C(=O)O [alisertib]
Outline: as §1

[9] = compound: COc1cc2nc(-c3cc(F)ccc3O)nc(N[C@@H]3CNC[C@H]3C(C)(C)O)c2cc1OC
Outline: as §1

[10] = compound: COc1cc2ncnc(Nc3ccc(F)c(Cl)c3)c2cc1OCCCN1CCOCC1 [gefitinib]
Outline: as §1

Measured: log2 fold change

POLA1 (UniProt P09884)
inactive: [1] -0.01 | [2] -0.031 | [3] 0.037 | [4] 0.016 | [5] -0.004 | [6] 0.022 | [7] 0.061 | [8] -0.013 | [9] 0.014 | [10] 0.008

POT1 (UniProt Q9NUX5)
inactive: [1] 0.06 | [2] -0.029 | [3] 0.027 | [4] 0.075 | [5] -0.024 | [6] -0.056 | [7] 0.03 | [8] -0.064 | [9] -0.011 | [10] 0.048

PNPLA2 (UniProt Q96AD5)
inactive: [1] -0.01 | [2] -0.008 | [3] -0.043 | [4] -0.021 | [5] 0.045 | [6] 0.007 | [7] 0.037 | [8] -0.003 | [9] -0.023 | [10] -0.035

PNPT1 (UniProt Q8TCS8)
inactive: [1] -0.008 | [2] 0.047 | [3] -0.025 | [4] -0.011 | [5] 0.004 | [6] 0 | [7] 0.025 | [8] 0.005 | [9] -0.003 | [10] 0.005

POP1 (UniProt Q99575)
inactive: [1] -0.006 | [2] 0.024 | [3] -0.01 | [4] 0.01 | [5] 0.058 | [6] 0 | [7] -0.014 | [8] 0.008 | [9] 0.003 | [10] 0.006

POLR3GL (UniProt Q9BT43)
inactive: [1] 0.074 | [2] 0.092 | [3] 0.106 | [4] -0.023 | [5] 0.15 | [6] 0.016 | [7] 0.002 | [8] -0.018 | [9] 0.035 | [10] -0.141

POU2F1 isoform 6 (UniProt P14859)
inactive: [1] 0.01 | [2] -0.042 | [3] -0.028 | [4] -0.056 | [5] 0.047 | [6] 0.028 | [7] -0.048 | [8] -0.013 | [9] -0.024 | [10] -0.022

PPCS (UniProt Q9HAB8)
inactive: [1] 0.018 | [2] 0.038 | [3] 0.016 | [4] -0.075 | [5] -0.056 | [6] -0.041 | [7] 0.008 | [8] -0.02 | [9] -0.029 | [10] 0.025

PNPLA8 (UniProt Q9NP80)
inactive: [1] -0.041 | [2] -0.231 | [3] -0.093 | [4] -0.078 | [5] -0.011 | [6] 0.013 | [7] -0.072 | [8] -0.007 | [9] -0.033 | [10] -0.012

PPIA (UniProt P62937)
inactive: [1] 0.011 | [2] 0.013 | [3] -0.021 | [4] -0.012 | [5] -0.008 | [6] -0.017 | [7] -0.053 | [8] 0.012 | [9] -0.022 | [10] -0.005

POP4 (UniProt O95707)
inactive: [1] -0.013 | [2] 0.039 | [3] -0.021 | [4] 0.003 | [5] -0.006 | [6] -0.016 | [7] 0 | [8] 0.01 | [9] -0.005 | [10] 0.012

PLRG1 (UniProt O43660)
inactive: [1] -0.06 | [2] 0.055 | [3] 0.011 | [4] 0.012 | [5] -0.021 | [6] 0.067 | [7] -0.003 | [8] -0.012 | [9] -0.014 | [10] -0.012

PLEKHM2 (UniProt Q8IWE5)
inactive: [1] 0.012 | [2] 0.083 | [3] 0 | [4] -0.007 | [5] 0.1 | [6] 0.026 | [7] 0.059 | [8] -0.011 | [9] 0.132 | [10] 0.04

PMPCA (UniProt Q10713)
inactive: [1] -0.006 | [2] 0.049 | [3] -0.045 | [4] 0.004 | [5] -0.004 | [6] 0.001 | [7] 0.04 | [8] -0.03 | [9] 0.003 | [10] -0.02

POLDIP2 (UniProt Q9Y2S7)
inactive: [1] 0.018 | [2] -0.044 | [3] -0.055 | [4] -0.015 | [5] -0.05 | [6] 0.009 | [7] -0.06 | [8] -0.056 | [9] -0.007 | [10] 0.012

POLD2 (UniProt P49005)
inactive: [1] 0.003 | [2] 0.013 | [3] 0.034 | [4] 0.034 | [5] -0.003 | [6] -0.063 | [7] -0.006 | [8] -0.009 | [9] -0.015 | [10] -0.005

POLG (UniProt P54098)
inactive: [1] 0.033 | [2] 0.074 | [3] 0 | [4] -0.021 | [5] 0.034 | [6] -0.081 | [7] 0.082 | [8] -0.025 | [9] -0.007 | [10] 0.096

PLIN3 (UniProt O60664)
inactive: [1] -0.007 | [2] 0.048 | [3] -0.012 | [4] 0.035 | [5] 0.004 | [6] 0.019 | [7] -0.019 | [8] -0.003 | [9] 0.016 | [10] -0.017

POLR3A (UniProt O14802)
inactive: [1] -0.049 | [2] -0.037 | [3] 0.012 | [4] -0.01 | [5] -0.011 | [6] 0.023 | [7] 0.036 | [8] -0.02 | [9] -0.008 | [10] -0.029

PPAN isoform 3 (UniProt Q9NQ55)
inactive: [1] -0.019 | [2] -0.034 | [3] 0.04 | [4] 0.015 | [5] 0.024 | [6] -0.005 | [7] 0.091 | [8] 0.016 | [9] -0.021 | [10] -0.016

POLB (UniProt P06746)
inactive: [1] 0.023 | [2] -0.199 | [3] -0.062 | [4] 0.028 | [5] -0.033 | [6] 0.045 | [7] 0.086 | [8] 0.015 | [9] 0 | [10] 0.038

POGLUT3 (UniProt Q7Z4H8)
inactive: [1] -0.006 | [2] 0.023 | [3] 0.023 | [4] 0.008 | [5] -0.074 | [6] 0.015 | [7] 0.034 | [8] 0.01 | [9] 0.011 | [10] 0.013

PNPLA6 (UniProt Q8IY17)
inactive: [1] -0.134 | [2] 0.017 | [3] 0.125 | [4] -0.051 | [5] 0.128 | [6] 0.023 | [7] -0.311 | [8] -0.06 | [9] -0.04 | [10] -0.223

POLE4 (UniProt Q9NR33)
inactive: [1] 0.033 | [2] 0.009 | [3] 0.094 | [4] 0.05 | [5] 0.06 | [6] 0.065 | [7] -0.033 | [8] 0 | [9] -0.032 | [10] -0.128

POLR2H (UniProt P52434)
inactive: [1] -0.04 | [2] 0.032 | [3] -0.021 | [4] -0.037 | [5] 0.014 | [6] -0.028 | [7] 0.009 | [8] -0.001 | [9] 0.016 | [10] 0.041

POLR3B (UniProt Q9NW08)
inactive: [1] 0.019 | [2] -0.047 | [3] 0.017 | [4] -0.006 | [5] 0.038 | [6] 0.025 | [7] 0.016 | [8] -0.015 | [9] 0 | [10] -0.004

PLOD1 (UniProt Q02809)
inactive: [1] -0.008 | [2] 0.003 | [3] 0.013 | [4] 0.005 | [5] -0.055 | [6] 0.037 | [7] -0.021 | [8] 0.007 | [9] 0.025 | [10] 0.009

PLPBP (UniProt O94903)
inactive: [1] -0.049 | [2] -0.015 | [3] 0.077 | [4] 0.041 | [5] 0.01 | [6] 0.005 | [7] -0.007 | [8] 0.011 | [9] -0.041 | [10] -0.008

Copied from above (5 entries):
POLDIP2 (UniProt Q9Y2S7)
inactive: [1] 0.018 | [2] -0.044 | [3] -0.055 | [4] -0.015 | [5] -0.05 | [6] 0.009 | [7] -0.06 | [8] -0.056 | [9] -0.007 | [10] 0.012

POLD2 (UniProt P49005)
inactive: [1] 0.003 | [2] 0.013 | [3] 0.034 | [4] 0.034 | [5] -0.003 | [6] -0.063 | [7] -0.006 | [8] -0.009 | [9] -0.015 | [10] -0.005

POLG (UniProt P54098)
inactive: [1] 0.033 | [2] 0.074 | [3] 0 | [4] -0.021 | [5] 0.034 | [6] -0.081 | [7] 0.082 | [8] -0.025 | [9] -0.007 | [10] 0.096

PLIN3 (UniProt O60664)
inactive: [1] -0.007 | [2] 0.048 | [3] -0.012 | [4] 0.035 | [5] 0.004 | [6] 0.019 | [7] -0.019 | [8] -0.003 | [9] 0.016 | [10] -0.017

POLR3A (UniProt O14802)
inactive: [1] -0.049 | [2] -0.037 | [3] 0.012 | [4] -0.01 | [5] -0.011 | [6] 0.023 | [7] 0.036 | [8] -0.02 | [9] -0.008 | [10] -0.029

The results go on:

PLXNA1 (UniProt Q9UIW2)
inactive: [1] -0.009 | [2] 0.024 | [3] -0.031 | [4] -0.005 | [5] -0.009 | [6] -0.002 | [7] -0.024 | [8] -0.022 | [9] 0.005 | [10] 0.01

POLR3E (UniProt Q9NVU0)
inactive: [1] 0.011 | [2] -0.08 | [3] 0.009 | [4] 0.02 | [5] 0.009 | [6] 0.004 | [7] 0.104 | [8] 0.024 | [9] -0.003 | [10] 0.009
